Data as given in PubChem BioAssay AID1259254 (NCATS, 2017).
Test: 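Gene knock-downs that lead to re-replication, shown by excess G2 DNA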 (primary screen). Cell system: human HCT116 colorectal cancer cells. Reagents: single siRNA against human genes. Duration: 3 days. Read-out: 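Imaged Hoechst DNA stain sorts each cell into a cycle phase by DNA amount; per plate, G2 fraction set to 0% for non-targeting and 100% for GMNN siRNA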. Scale: G2 robust z-score and G2 cells, % of GMNN control: higher = more G2 cells, more excess DNA replication. Active means: 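An siRNA counts as active if its G2 robust z-score lies at least 5 MADs above the screen median; here such calls match roughly 38% of GMNN control or more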.
In all, the deposit lists about 59,000 reagents; below is an unselected part. Over the whole deposit, about 1,550 (2.6%) are marked active. 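G2 share is only a proxy for re-replication; each gene was hit by three separate siRNAs, and active genes were retested.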 Reagents against one gene are numbered here. Further read-outs or replicates are left out here. Reagent sequences are not shown. The record does not give: the amount of reagent.

With BAZ1B (GeneID 9031) #1, what was measured?
G2 robust z-score: -1.02; G2 cells, % of GMNN control: -4.21; activity call: inactive

What did the screen give for BAZ1B (GeneID 9031) #2?
G2 robust z-score: -1.6; G2 cells, % of GMNN control: -8.31; activity call: inactive

For BAZ1B (GeneID 9031) #3, how do the results read?
G2 robust z-score: 3.84; G2 cells, % of GMNN control: 30; activity call: inactive

How did the screen score LOC643659 (retired record) (GeneID 643659) #1?
G2 robust z-score: 2.17; G2 cells, % of GMNN control: 18.2; activity call: inactive

What did the screen give for LOC643659 (retired record) (GeneID 643659) #2?
G2 robust z-score: 0.204; G2 cells, % of GMNN control: 4.4; activity call: inactive

With LOC643659 (retired record) (GeneID 643659) #3, what was measured?
G2 robust z-score: 1.68; G2 cells, % of GMNN control: 14.8; activity call: inactive

With PDE8B (GeneID 8622) #1, what does the deposit list?
G2 robust z-score: -0.81; G2 cells, % of GMNN control: -2.73; activity call: inactive

What did the screen give for PDE8B (GeneID 8622) #2?
G2 robust z-score: -0.64; G2 cells, % of GMNN control: -1.54; activity call: inactive

With PDE8B (GeneID 8622) #3, how do the results read?
G2 robust z-score: -0.688; G2 cells, % of GMNN control: -1.88; activity call: inactive

What did the screen give for CNTLN (GeneID 54875) #1?
G2 robust z-score: 2.08; G2 cells, % of GMNN control: 17.6; activity call: inactive

With CNTLN (GeneID 54875) #2, what was measured?
G2 robust z-score: 3.87; G2 cells, % of GMNN control: 30.2; activity call: inactive

Which result is listed for CNTLN (GeneID 54875) #3?
G2 robust z-score: 1.82; G2 cells, % of GMNN control: 15.8; activity call: inactive

With CIAO1 (GeneID 9391) #1, what does the deposit list?
G2 robust z-score: -0.233; G2 cells, % of GMNN control: 1.33; activity call: inactive

For CIAO1 (GeneID 9391) #2, what was measured?
G2 robust z-score: -0.536; G2 cells, % of GMNN control: -0.806; activity call: inactive

For CIAO1 (GeneID 9391) #3, what was measured?
G2 robust z-score: -0.469; G2 cells, % of GMNN control: -0.331; activity call: inactive

3 entries from above, reformatted.
target gene,reagent,G2 robust z-score,"G2 cells, % of GMNN control",activity call
BAZ1B (GeneID 9031),3,3.84,30,inactive
LOC643659 (retired record) (GeneID 643659),1,2.17,18.2,inactive
LOC643659 (retired record) (GeneID 643659),2,0.204,4.4,inactive

The listing continues.
For GJB4 (GeneID 127534) #1, what does the deposit list?
G2 robust z-score: 2.69; G2 cells, % of GMNN control: 21.9; activity call: inactive

For GJB4 (GeneID 127534) #2, what does the deposit list?
G2 robust z-score: 0.671; G2 cells, % of GMNN control: 7.69; activity call: inactive

Which result is listed for GJB4 (GeneID 127534) #3?
G2 robust z-score: -0.5; G2 cells, % of GMNN control: -0.552; activity call: inactive

What did the screen give for PAQR6 (GeneID 79957) #1?
G2 robust z-score: -1.08; G2 cells, % of GMNN control: -4.64; activity call: inactive

For PAQR6 (GeneID 79957) #2, what was measured?
G2 robust z-score: -0.371; G2 cells, % of GMNN control: 0.354; activity call: inactive

For PAQR6 (GeneID 79957) #3, how do the results read?
G2 robust z-score: 0.695; G2 cells, % of GMNN control: 7.86; activity call: inactive

How did the screen score RAB4B (GeneID 53916) #1?
G2 robust z-score: 3.05; G2 cells, % of GMNN control: 24.4; activity call: inactive

Which result is listed for RAB4B (GeneID 53916) #2?
G2 robust z-score: 0.263; G2 cells, % of GMNN control: 4.82; activity call: inactive

With RAB4B (GeneID 53916) #3, what was measured?
G2 robust z-score: -0.841; G2 cells, % of GMNN control: -2.95; activity call: inactive

Which result is listed for SYNJ1 (GeneID 8867) #1?
G2 robust z-score: 0.242; G2 cells, % of GMNN control: 4.67; activity call: inactive

Which result is listed for SYNJ1 (GeneID 8867) #2?
G2 robust z-score: -0.28; G2 cells, % of GMNN control: 0.996; activity call: inactive

With SYNJ1 (GeneID 8867) #3, what was measured?
G2 robust z-score: -1.05; G2 cells, % of GMNN control: -4.42; activity call: inactive

With ROCK1P1 (GeneID 727758) #1, what was measured?
G2 robust z-score: 0.454; G2 cells, % of GMNN control: 6.16; activity call: inactive

What is on record for ROCK1P1 (GeneID 727758) #2?
G2 robust z-score: 0.374; G2 cells, % of GMNN control: 5.6; activity call: inactive

What is on record for ROCK1P1 (GeneID 727758) #3?
G2 robust z-score: 5.51; G2 cells, % of GMNN control: 41.8; activity call: active
